# Data from patent US6472165B1, “Modulatory binding site in potassium channels for screening and finding new active ingredients” (Arzneimittelwerk Dresden GmbH, priority 1999, dated 2002).
# For at least one compound, name, drawing or mass did not settle the structure.
# What was measured:
# Type in all cases: cell-based
# [1] = target: T1, Kir3.1 (GIRK1) (Homo sapiens, UniProt P48549); assay: Effect of retigabine on cloned potassium channels, two-electrode voltage clamp; conditions: Xenopus oocytes
# T1 construct: expressed in transfected cells; host or cells: Xenopus oocytes (cRNA injection)
# T1 sequence (P48549 1-501): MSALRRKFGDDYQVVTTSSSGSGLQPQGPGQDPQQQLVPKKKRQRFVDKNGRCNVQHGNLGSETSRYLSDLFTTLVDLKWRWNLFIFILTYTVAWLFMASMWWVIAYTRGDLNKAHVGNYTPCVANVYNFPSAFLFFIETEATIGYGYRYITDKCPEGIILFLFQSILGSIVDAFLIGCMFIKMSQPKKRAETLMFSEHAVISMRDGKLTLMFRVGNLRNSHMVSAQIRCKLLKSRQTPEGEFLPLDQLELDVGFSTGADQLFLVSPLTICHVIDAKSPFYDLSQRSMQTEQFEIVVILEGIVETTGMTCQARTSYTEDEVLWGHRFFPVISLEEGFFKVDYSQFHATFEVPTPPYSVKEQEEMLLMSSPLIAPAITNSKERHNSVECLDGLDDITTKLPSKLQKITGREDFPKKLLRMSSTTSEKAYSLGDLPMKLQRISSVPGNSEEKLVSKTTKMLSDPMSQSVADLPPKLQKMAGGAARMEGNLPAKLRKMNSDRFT
# [2] = target: T2, GIRK1 & GIRK2 (Homo sapiens, UniProt P48051+P48549); assay: as above; conditions: GIRK1 & GIRK2, Xenopus oocytes
# T2 construct: expressed in transfected cells; host or cells: Xenopus oocytes (cRNA injection)
# T2 sequence (P48549 1-501): T1 sequence (P48549 1-501)
# T2 sequence (P48051 1-423): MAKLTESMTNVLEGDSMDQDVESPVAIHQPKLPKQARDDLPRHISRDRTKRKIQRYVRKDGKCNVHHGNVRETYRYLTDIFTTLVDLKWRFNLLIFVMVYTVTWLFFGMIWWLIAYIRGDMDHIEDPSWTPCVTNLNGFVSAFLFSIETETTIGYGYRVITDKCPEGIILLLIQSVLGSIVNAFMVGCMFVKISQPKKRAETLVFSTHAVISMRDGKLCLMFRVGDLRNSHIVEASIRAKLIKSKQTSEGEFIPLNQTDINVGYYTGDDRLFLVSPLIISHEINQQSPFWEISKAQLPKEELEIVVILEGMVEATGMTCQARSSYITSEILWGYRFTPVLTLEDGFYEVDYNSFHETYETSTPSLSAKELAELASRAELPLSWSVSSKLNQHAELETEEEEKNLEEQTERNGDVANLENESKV
# [3] = target: T3, GIRK2 & GIRK3 (Homo sapiens, UniProt P48051+Q92806); assay: as above; conditions: GIRK2 & GIRK3, Xenopus oocytes
# T3 construct: expressed in transfected cells; host or cells: Xenopus oocytes (cRNA injection)
# T3 sequence (P48051 1-423): T2 sequence (P48051 1-423)
# T3 sequence (Q92806 1-393): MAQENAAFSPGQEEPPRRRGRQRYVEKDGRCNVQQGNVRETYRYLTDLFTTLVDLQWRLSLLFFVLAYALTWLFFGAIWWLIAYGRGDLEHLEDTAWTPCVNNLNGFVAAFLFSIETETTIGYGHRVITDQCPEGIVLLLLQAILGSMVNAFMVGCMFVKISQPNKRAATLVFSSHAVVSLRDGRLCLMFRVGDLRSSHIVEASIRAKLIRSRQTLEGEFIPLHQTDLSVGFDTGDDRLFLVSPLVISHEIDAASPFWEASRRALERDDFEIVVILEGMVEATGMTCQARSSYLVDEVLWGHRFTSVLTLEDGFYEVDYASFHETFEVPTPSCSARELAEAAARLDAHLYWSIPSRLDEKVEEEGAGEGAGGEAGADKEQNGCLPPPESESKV
# [4] = target: T4, r-erg3 (Rattus norvegicus, UniProt O54852); assay: Effect of retigabine on cloned potassium channels, patch clamp; conditions: r-erg3, CHO cells
# T4 construct: expressed in transfected cells; host or cells: CHO cells (liposome cDNA transfection)
# T4 sequence (O54852 1-1195): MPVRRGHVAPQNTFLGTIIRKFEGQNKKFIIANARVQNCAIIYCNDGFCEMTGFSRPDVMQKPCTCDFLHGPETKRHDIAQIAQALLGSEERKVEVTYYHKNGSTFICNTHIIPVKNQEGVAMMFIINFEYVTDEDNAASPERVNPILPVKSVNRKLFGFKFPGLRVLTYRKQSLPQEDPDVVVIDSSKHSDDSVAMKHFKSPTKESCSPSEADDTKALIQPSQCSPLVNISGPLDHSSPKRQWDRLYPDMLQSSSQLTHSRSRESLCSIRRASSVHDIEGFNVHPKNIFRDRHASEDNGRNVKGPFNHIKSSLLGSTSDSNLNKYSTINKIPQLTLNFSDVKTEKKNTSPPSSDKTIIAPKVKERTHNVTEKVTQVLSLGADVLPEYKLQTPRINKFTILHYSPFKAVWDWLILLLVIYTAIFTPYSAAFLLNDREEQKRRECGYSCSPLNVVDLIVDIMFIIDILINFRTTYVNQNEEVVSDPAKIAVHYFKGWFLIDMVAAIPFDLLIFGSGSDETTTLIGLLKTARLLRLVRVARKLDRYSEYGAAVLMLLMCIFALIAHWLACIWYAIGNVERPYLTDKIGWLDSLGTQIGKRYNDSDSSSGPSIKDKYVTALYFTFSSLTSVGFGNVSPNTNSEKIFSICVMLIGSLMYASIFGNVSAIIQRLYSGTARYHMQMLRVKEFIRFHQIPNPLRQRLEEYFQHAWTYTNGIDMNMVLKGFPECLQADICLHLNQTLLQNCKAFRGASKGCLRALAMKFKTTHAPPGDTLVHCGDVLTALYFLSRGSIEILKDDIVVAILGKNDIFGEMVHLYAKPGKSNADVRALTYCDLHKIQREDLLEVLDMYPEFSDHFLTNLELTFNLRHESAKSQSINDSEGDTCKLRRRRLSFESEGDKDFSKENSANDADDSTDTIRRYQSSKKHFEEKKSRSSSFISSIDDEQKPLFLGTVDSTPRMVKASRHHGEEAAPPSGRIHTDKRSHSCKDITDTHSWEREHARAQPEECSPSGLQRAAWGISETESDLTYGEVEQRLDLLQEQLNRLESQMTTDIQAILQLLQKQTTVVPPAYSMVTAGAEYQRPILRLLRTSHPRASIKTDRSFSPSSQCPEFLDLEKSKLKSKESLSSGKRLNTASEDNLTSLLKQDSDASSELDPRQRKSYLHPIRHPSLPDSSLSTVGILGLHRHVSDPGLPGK
# [5] = target: T5, KCNQ2 (Homo sapiens, UniProt O43526); assay: as above
# T5 construct: expressed in transfected cells; host or cells: CHO cells (liposome cDNA transfection)
# [6] = target: T6, KCNQ3 (Homo sapiens, UniProt O43525); assay: as above; conditions: KCNQ3, CHO cells
# T6 construct: expressed in transfected cells; host or cells: CHO cells (liposome cDNA transfection)
structure (smiles),measurement,setting,value
"CCOC(=O)Nc1ccc(NCc2ccc(F)cc2)cc1N [retigabine, 2-amino-4-(4-fluorobenzylamino)-1-ethoxycarbonyl-aminobenzene]",Effect of 10 μM of Retigabine,[1],No effect
same,Effect of 10 μM of Retigabine,[2],No effect
same,Effect of 10 μM of Retigabine,[3],No effect
same,Effect of 10 μM of Retigabine,[4],No effect
same,Current voltage curve obtained by stepwise hyperpolarization/depolarization,"[5]; CHO cells containing subunit KCNQ2, in the presence of retigabine",shifted in its activation to more negative potentials
same,Effect of 10 μM of Retigabine: induced current (weak activation),"[5]; KCNQ2, CHO cells, 10 μM, cells slightly depolarized (−60 or −50 mV)",10 μM of retigabine (165 pA
same,Effect of 10 μM of Retigabine,[6],No effect
